The supplement of paper PMC9254222
Whole data set: some 1,100 compounds, median “Renilla luciferase signal (cell health) relative to plate median” near 0.97, cut for the highest 2% near 1.6. The entries are a selection whose mix differs from that of the whole data set.

System: HEK293T (UBE3A T485A transfected, BAR Wnt reporter)
Experiment: Renilla luciferase signal (cell health) relative to plate median (fold (linear ratio)); higher = higher Renilla signal
Conditions: 24 h
Method in brief: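 HEK293T cells were seeded at 4500 cells/well in white 384-well plates and grown in DMEM with 10% FBS at 37°C and 5% CO2. The cells were transfected using Fugene 6 with a BAR firefly luciferase Wnt reporter, TK-Renilla and an expression plasmid, and four hours later robots added the chemicals at 0.01–100 uM for 24 h before a Dual-Glo luciferase readout. Wnt activity was taken as the firefly/Renilla ratio and cell health as raw Renilla, each median-centred per plate. Values are averages of four biological replicates.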

Row | Compound | Renilla luciferase signal (concentration: 0.01 uM) | Renilla luciferase signal (concentration: 0.1 uM) | Renilla luciferase signal (concentration: 1 uM) | Renilla luciferase signal (concentration: 10 uM) | Renilla luciferase signal (concentration: 100 uM)
1 | CC(C)=CC1C(C(=O)OCc2coc(Cc3ccccc3)c2)C1(C)C (configuration not stated) [Resmethrin] | 1.12 | 1.04 | 0.974 | 1.01 | 0.166
2 | CCOC(=O)C(O)(c1ccc(Cl)cc1)c1ccc(Cl)cc1 [Chlorobenzilate] | – | 0.927 | 0.837 | 0.929 | 1.26
3 | O=S(=O)([O-])C(F)(F)C(F)(F)C(F)(F)C(F)(F)F.[K+] | – | 1.06 | 0.981 | 1.11 | 1.1
4 | CC(C)N1C(=O)N(c2ccccc2)CSC1=NC(C)(C)C [Buprofezin] | 0.892 | 0.933 | 1.04 | 1.24 | 0.318
5 | COP(=O)(OC)OC(Br)C(Cl)(Cl)Br (configuration not stated) [Naled] | 1.25 | 1.18 | 1.07 | 1.08 | 0.0181
6 | CC(C)(C)OOC(C)(C)CCC(C)(C)OOC(C)(C)C [2,5-Dimethyl-2,5-di-(tert-butylperoxy)hexane] | – | 1.01 | 0.999 | 1.02 | 1.35
7 | CC(Oc1ccc(Cl)cc1Cl)C(=O)O (configuration not stated) [Dichlorprop] | 0.843 | 0.959 | 0.959 | 1.04 | 1.6
8 | CC(C)(C)CC(C)(C)c1ccc(O)cc1 [4-(1,1,3,3-Tetramethylbutyl)phenol] | – | 0.923 | 0.949 | 0.944 | 1.12
9 | CCNc1nc(Cl)nc(NC(C)(C)C#N)n1 [Cyanazine] | 1.14 | 0.998 | 1.15 | 0.955 | 0.93
10 | O=C(O)COc1ccc(Cl)cc1Cl [2,4-Dichlorophenoxyacetic acid] | – | – | – | – | 1.69
11 | CCCCN(CC)c1c([N+](=O)[O-])cc(C(F)(F)F)cc1[N+](=O)[O-] [Benfluralin] | 1.12 | 0.838 | 0.99 | 0.917 | 1.31
12 | COC(=O)NC(=S)Nc1ccccc1NC(=S)NC(=O)OC [Thiophanate-methyl] | 1.37 | 0.913 | 1 | 1.01 | 0.274
13 | COc1ccccc1N [2-Anisidine] | – | 1.14 | 1.06 | 1.24 | 1.34
14 | O=P(Oc1ccccc1)(Oc1ccccc1)Oc1ccccc1 [Triphenyl phosphate] | – | 0.815 | 0.778 | 0.825 | 1.02
15 | O=C(NC(=O)c1c(F)cccc1F)Nc1ccc(OC(F)(F)C(F)OC(F)(F)F)c(Cl)c1 (configuration not stated) [Novaluron] | 1.08 | 0.982 | 0.998 | 0.935 | 1.48
16 | CCCCCCCCOC(=O)c1ccc(C(=O)OCCCCCCCC)c(C(=O)OCCCCCCCC)c1 [Trioctyl trimellitate] | – | 1.21 | 1.15 | 1.12 | 1.36
17 | CC1(C(=O)Nc2ccc(O)c(Cl)c2Cl)CCCCC1 [Fenhexamid] | 1.18 | 0.958 | 1.03 | 1.15 | 0.372
18 | COc1cc(Cl)c(OC)cc1Cl [Chloroneb] | – | – | – | – | 1.91
19 | Clc1ccccc1Cl [1,2-Dichlorobenzene] | – | 1.14 | 0.945 | 1.05 | 1.27
20 | CC#Cc1cc(C)nc(Nc2ccccc2)n1 [Mepanipyrim] | – | 1.04 | 1.02 | 1.23 | 0.891
21 | COc1cc(OC)nc(Sc2cccc(Cl)c2C(=O)[O-])n1.[Na+] [Pyrithiobac-sodium] | – | – | – | – | 1.69
22 | CCOC(=O)CC(SP(=O)(OC)OC)C(=O)OCC (configuration not stated) [Malaoxon] | 1.23 | 1.3 | 1.17 | 1.1 | 1.49

Row | Compound | Renilla luciferase signal (concentration: 0.01 uM) | Renilla luciferase signal (concentration: 0.1 uM) | Renilla luciferase signal (concentration: 1 uM) | Renilla luciferase signal (concentration: 10 uM) | Renilla luciferase signal (concentration: 100 uM)
23 | CCCCN(CCCC)SN(C)C(=O)Oc1cccc2c1OC(C)(C)C2 [Carbosulfan] | – | 0.808 | 0.906 | 0.941 | 1.01
24 | CCOP(=O)(SC(C)CC)N1CCSC1=O (configuration not stated) [Fosthiazate] | – | – | – | – | 1.7
25 | N#CC(Br)Br [Dibromoacetonitrile] | – | 1.11 | 1.09 | 1.07 | 1.21
26 | CC(C)(C)C(O)C(Oc1ccc(Cl)cc1)n1cncn1 (configuration not stated) [Triadimenol] | 1.01 | 0.885 | 0.844 | 0.906 | 0.699
27 | CCSC(=O)N1CCCCCC1 [Molinate] | 0.998 | 0.899 | 0.905 | 1.04 | 1.8
28 | CC(C)[C@H](C(=O)O[C@H](C#N)c1cccc(Oc2ccccc2)c1)c1ccc(Cl)cc1 [Esfenvalerate] | 0.932 | 0.969 | 0.846 | 0.908 | 0.397
29 | CC(C)N(Cc1ccccc1)C(=O)C(C)(C)C [Butam] | – | 0.847 | 0.802 | 0.836 | 0.707
30 | ClC1=C(Cl)C(Cl)(Cl)C(Cl)=C1Cl [Hexachlorocyclopentadiene] | – | 1.04 | 1.07 | 0.983 | 0.136
31 | Nc1ccc(Cl)cc1 [4-Chloroaniline] | – | 0.986 | 0.954 | 1.06 | 1.17
32 | Cc1cccc(N)c1 [3-Methylaniline] | – | 1.5 | 1.28 | 1.32 | 1.52
33 | N#Cc1nn(-c2c(Cl)cc(C(F)(F)F)cc2Cl)c(N)c1S(=O)C(F)(F)F (configuration not stated) [Fipronil] | 1.07 | 0.955 | 0.873 | 0.957 | 0.8
34 | C[N+](C)(C)CC1CO1.[Cl-] (configuration not stated) [N,N,N-Trimethyl(oxiran-2-yl)methanaminium chloride] | – | 1.28 | 1.21 | 1.25 | 1.26
35 | Clc1ccc(C(c2ccc(Cl)cc2)C(Cl)Cl)cc1 | – | 0.925 | 0.872 | 0.929 | 1.19
36 | COC(=O)c1ccccc1N [Methyl 2-aminobenzoate] | – | 1.09 | 1.07 | 1.11 | 1.51
37 | OCCN(CCO)CCO [Triethanolamine] | – | 0.958 | 0.924 | 1.03 | 0.807
38 | N#Cc1c(Cl)cccc1Cl [Dichlobenil] | 0.873 | 0.853 | 1.03 | 0.992 | 1.96
39 | CC(C)NC(=O)N1CC(=O)N(c2cc(Cl)cc(Cl)c2)C1=O [Iprodione] | 1.01 | 0.786 | 0.924 | 0.884 | 1.29
40 | CC1(C)C(C(=O)OC(C#N)c2cccc(Oc3ccccc3)c2)C1(C)C (configuration not stated) [Fenpropathrin] | 1.12 | 1.01 | 1.15 | 1.2 | 0.293
41 | CCOP(=S)(OCC)SCCSCC [Disulfoton] | 0.695 | 0.81 | 0.813 | 0.759 | 1.16
42 | CNC(=O)Oc1cccc2c1OC(C)(C)O2 [Bendiocarb] | 0.702 | 1.06 | 0.942 | 0.927 | 0.968
43 | CCOP(=S)(OCC)Oc1ccc([N+](=O)[O-])cc1 [Parathion] | 1.03 | 1.13 | 1.04 | 1.11 | 1.36
44 | COCc1cnc(C2=NC(C)(C(C)C)C(=O)N2)c(C(=O)O)c1 (configuration not stated) [Imazamox] | – | – | – | – | 2.3

Shown as a markdown table: part of the list above.

| Row | Compound | Renilla luciferase signal (concentration: 0.01 uM) | Renilla luciferase signal (concentration: 0.1 uM) | Renilla luciferase signal (concentration: 1 uM) | Renilla luciferase signal (concentration: 10 uM) | Renilla luciferase signal (concentration: 100 uM) |
| --- | --- | --- | --- | --- | --- | --- |
| 32 | Cc1cccc(N)c1 [3-Methylaniline] | – | 1.5 | 1.28 | 1.32 | 1.52 |
| 33 | N#Cc1nn(-c2c(Cl)cc(C(F)(F)F)cc2Cl)c(N)c1S(=O)C(F)(F)F (configuration not stated) [Fipronil] | 1.07 | 0.955 | 0.873 | 0.957 | 0.8 |

Going on with the list:

Row | Compound | Renilla luciferase signal (concentration: 0.01 uM) | Renilla luciferase signal (concentration: 0.1 uM) | Renilla luciferase signal (concentration: 1 uM) | Renilla luciferase signal (concentration: 10 uM) | Renilla luciferase signal (concentration: 100 uM)
45 | CC(C)(C)C(O)(CCc1ccc(Cl)cc1)Cn1cncn1 (configuration not stated) [Tebuconazole] | – | 0.813 | 0.788 | 0.701 | 0.0612
46 | CO[C@@H]1[C@H](OC(=O)NC(=O)CCl)CC[C@]2(CO2)[C@H]1[C@@]1(C)O[C@@H]1CC=C(C)C | – | 0.689 | 0.68 | 0.661 | 0.804
47 | CCCCC(C#N)(Cn1cncn1)c1ccc(Cl)cc1 (configuration not stated) [Myclobutanil] | 1.08 | 0.928 | 1 | 0.876 | 0.762
48 | CC(C)(C)C(=O)C(Oc1ccc(Cl)cc1)n1cncn1 (configuration not stated) [Triadimefon] | 1.42 | 0.867 | 0.961 | 1.05 | 0.777
49 | Cc1cc(C)nc(Nc2ccccc2)n1 [Pyrimethanil] | 1 | 0.904 | 1.03 | 1.09 | 1.36
50 | CN1COCN(Cc2cnc(Cl)s2)C1=N[N+](=O)[O-] [Thiamethoxam] | – | – | – | – | 2.15
51 | CCN(CC)C(=O)C(C)Oc1cccc2ccccc12 (configuration not stated) [Napropamide] | 0.925 | 0.845 | 0.951 | 0.794 | 0.718
52 | OC(c1ccc(Cl)cc1)(c1cncnc1)c1ccccc1Cl (configuration not stated) [Fenarimol] | 1.21 | 0.875 | 0.953 | 0.942 | 0.199
53 | COP(=O)(OC)SCn1c(=O)oc2cc(Cl)cnc21 [Azamethiphos] | 0.996 | 0.765 | 0.903 | 0.791 | 0.345
54 | Cc1c(COC(=O)[C@H]2[C@@H](/C=C(\Cl)C(F)(F)F)C2(C)C)cccc1-c1ccccc1 [Bifenthrin] | 0.972 | 0.726 | 0.856 | 0.897 | 0.189
55 | [Na+].[O-][Cl+][O-] [Sodium chlorite] | – | 1.07 | 0.996 | 1.06 | 1.34
56 | CCOc1cc(C(C)(C)C)ccc1C1COC(c2c(F)cccc2F)=N1 (configuration not stated) [Etoxazole] | 0.924 | 1.13 | 1.14 | 1.06 | 0.123
57 | CCNP(=S)(OC)O/C(C)=C/C(=O)OC(C)C (configuration not stated) [Propetamphos] | 0.846 | 0.913 | 1.08 | 1.07 | 1.56
58 | O=[N+]([O-])/N=C1\NCCN1Cc1ccc(Cl)nc1 [Imidacloprid] | 0.993 | 1.11 | 0.934 | 0.949 | 1.15
59 | C1=CCCC=CCCC=CCC1 [1,5,9-Cyclododecatriene] | – | 0.691 | 0.775 | 0.813 | 1.02
60 | CCCCNC(=O)OCC#CI [3-Iodo-2-propynyl-N-butylcarbamate] | 0.922 | 0.986 | 0.947 | 0.822 | 0.0151
61 | COC(=O)NS(=O)(=O)c1ccc(N)cc1 [Asulam] | – | – | – | – | 2
62 | CCCSP(=O)(OCC)SCCC [Ethoprop] | 1.13 | 0.976 | 1.08 | 1.1 | 1.86
63 | CCc1nn(C)c(C(=O)NCc2ccc(C(C)(C)C)cc2)c1Cl [Tebufenpyrad] | 1.06 | 0.931 | 0.732 | 0.359 | 0.0917
64 | Clc1ccc(C(c2ccccc2Cl)C(Cl)(Cl)Cl)cc1 (configuration not stated) | – | 1.12 | 1.01 | 1.02 | 1.24
65 | Nc1cc(Cl)cc(C(=O)O)c1Cl [Chloramben] | – | 1.02 | 1.02 | 1.18 | 1.64

By substructure, the compounds so far with a carbonyl joined to an NH by a bond outside any ring (9)
Row | Compound | Renilla luciferase signal (concentration: 0.01 uM) | Renilla luciferase signal (concentration: 0.1 uM) | Renilla luciferase signal (concentration: 1 uM) | Renilla luciferase signal (concentration: 10 uM) | Renilla luciferase signal (concentration: 100 uM)
12 | COC(=O)NC(=S)Nc1ccccc1NC(=S)NC(=O)OC [Thiophanate-methyl] | 1.37 | 0.913 | 1 | 1.01 | 0.274
15 | O=C(NC(=O)c1c(F)cccc1F)Nc1ccc(OC(F)(F)C(F)OC(F)(F)F)c(Cl)c1 (configuration not stated) [Novaluron] | 1.08 | 0.982 | 0.998 | 0.935 | 1.48
17 | CC1(C(=O)Nc2ccc(O)c(Cl)c2Cl)CCCCC1 [Fenhexamid] | 1.18 | 0.958 | 1.03 | 1.15 | 0.372
39 | CC(C)NC(=O)N1CC(=O)N(c2cc(Cl)cc(Cl)c2)C1=O [Iprodione] | 1.01 | 0.786 | 0.924 | 0.884 | 1.29
42 | CNC(=O)Oc1cccc2c1OC(C)(C)O2 [Bendiocarb] | 0.702 | 1.06 | 0.942 | 0.927 | 0.968
46 | CO[C@@H]1[C@H](OC(=O)NC(=O)CCl)CC[C@]2(CO2)[C@H]1[C@@]1(C)O[C@@H]1CC=C(C)C | – | 0.689 | 0.68 | 0.661 | 0.804
60 | CCCCNC(=O)OCC#CI [3-Iodo-2-propynyl-N-butylcarbamate] | 0.922 | 0.986 | 0.947 | 0.822 | 0.0151
61 | COC(=O)NS(=O)(=O)c1ccc(N)cc1 [Asulam] | – | – | – | – | 2
63 | CCc1nn(C)c(C(=O)NCc2ccc(C(C)(C)C)cc2)c1Cl [Tebufenpyrad] | 1.06 | 0.931 | 0.732 | 0.359 | 0.0917
